Drawing on publication PMC8566473, this text covers binding for one molecule.

The chains behind the UniProt entries cited, without tags or fusion partners.
UniProt P48431: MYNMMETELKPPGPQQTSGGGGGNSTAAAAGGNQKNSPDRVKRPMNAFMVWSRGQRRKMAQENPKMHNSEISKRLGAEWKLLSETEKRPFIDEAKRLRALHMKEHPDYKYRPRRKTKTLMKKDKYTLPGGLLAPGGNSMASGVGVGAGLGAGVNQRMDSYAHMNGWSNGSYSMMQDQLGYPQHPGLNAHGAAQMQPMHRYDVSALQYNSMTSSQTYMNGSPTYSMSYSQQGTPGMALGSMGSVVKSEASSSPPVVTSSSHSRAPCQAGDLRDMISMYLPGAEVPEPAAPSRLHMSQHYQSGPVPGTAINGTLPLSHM

No constants are given. Whether binding was seen depends on the method and setting. Binding seen in cells or lysates may run through a third protein. Here binding means that the protein was enriched with, or labelled near, the bait; the list need not be complete.

The test addresses SOX2 (SRY (sex-determining region Y)-box 2), endogenous in GSCs (human) (UniProt P48431). Nature of the test: affinity purification with mass spectrometry; IP of endogenous SOX2 with goat anti-SOX2 or control goat IgG from 1% NP-40 lysates of GSC line B36; protein G-sepharose, 7 washes; SDS-PAGE, in-gel trypsin digestion, LC-MS/MS.

B1: KLHL22 (protein, UniProt Q53GT1 1-634)
chain: MAEEQEFTQLCKLPAQPSHPHCVNNTYRSAQHSQALLRGLLALRDSGILFDVVLVVEGRHIEAHRILLAASCDYFRGMFAGGLKEMEQEEVLIHGVSYNAMCQILHFIYTSELELSLSNVQETLVAACQLQIPEIIHFCCDFLMSWVDEENILDVYRLAELFDLSRLTEQLDTYILKNFVAFSRTDKYRQLPLEKVYSLLSSNRLEVSCETEVYEGALLYHYSLEQVQADQISLHEPPKLLETVRFPLMEAEVLQRLHDKLDPSPLRDTVASALMYHRNESLQPSLQSPQTELRSDFQCVVGFGGIHSTPSTVLSDQAKYLNPLLGEWKHFTASLAPRMSNQGIAVLNNFVYLIGGDNNVQGFRAESRCWRYDPRHNRWFQIQSLQQEHADLSVCVVGRYIYAVAGRDYHNDLNAVERYDPATNSWAYVAPLKREVYAHAGATLEGKMYITCGRRGEDYLKETHCYDPGSNTWHTLADGPVRRAWHGMATLLNKLYVIGGSNNDAGYRRDVHQVACYSCTSGQWSSVCPLPAGHGEPGIAVLDNRIYVLGGRSHNRGSRTGYVHIYDVEKDCWEEGPQLDNSISGLAACVLTLPRSLLLEPPRGTPDRSQADPDFASEVMSVSDWEEFDNSSED
Turning to B1, the binding result is recorded as “binds”.
